Record: PubChem BioAssay AID1053208 (Peter MacCallum Cancer Centre, 2014)
Purpose: 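Genes whose silencing cuts survival of bone tumour cells only with doxorubicin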 (primary screen). Cell system: mouse osteosarcoma cells, early-passage culture from an engineered mouse model of fibroblastic bone tumour. Reagents: siRNA pool against mouse genes, 40 nM. Time to read-out: about 120 h (48 h before drug, then 72 h with drug). Treatment: doxorubicin 100 nM for 72 h, roughly 30-40% inhibitory dose. Measurement: 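Viability read as ATP luminescence after 72 h of 100 nM doxorubicin or none, duplicate wells averaged, scaled to non-targeting siRNA, then expressed as robust z-scores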. Direction: viability z-score with doxorubicin: higher = more viable cells under doxorubicin; viability z-score without drug: higher = more viable cells with knock-down alone. Rule for the call: 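a pool counts as active when its viability z-score with doxorubicin is -2 or below and its z-score without drug lies between -2 and 2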.
Here is a random part of about 17,000 reagents. Over the whole deposit, 788 (4.7%) are marked active. 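Calls rest on z-score classes alone; an extra cut-off of viability at most 70% of control was not applied to them.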 Unmarked entries are inactive. Further read-outs or replicates are left out here.

| target | combined z-score class | viability z-score with doxorubicin | viability z-score without drug |
| --- | --- | --- | --- |
| Prkar2a | no change with or without drug | 1.57 | 0.84 |
| Or4f15 | no change with or without drug | -1.01 | -1.69 |
| Slc25a26 | no change with or without drug | -1.12 | 0.17 |
| Or1e30 | no change with or without drug | 0 | -0.84 |
| Ptms | no change with or without drug | 0.56 | 0.51 |
| Smarcal1 | no change with or without drug | -0.45 | -1.52 |
| Or2t6 | no change with or without drug | 0.45 | 1.69 |
| Slc13a3 | no change with or without drug | -0.67 | 1.52 |
| Ahsa2 | no change with or without drug | 0 | 1.18 |
| Or4c127 | low cell count without drug only | -1.8 | -2.02 |
| Serpina9 | no change with or without drug | 0.34 | -0.84 |
| Hnrnpll | no change with or without drug | -0.9 | 1.18 |
| Gata6 | no change with or without drug | -0.79 | 0.51 |
| Metap2 | no change with or without drug | -1.12 | -0.34 |
| Fcer1g | no change with or without drug | -1.24 | -0.34 |
| Rhbdf2 | no change with or without drug | -0.22 | 0.34 |
| Lin52 | no change with or without drug | -0.34 | 0.17 |
| Rab34 | no change with or without drug | 0.9 | 0.51 |
| Clip1 | no change with or without drug | -1.35 | -1.18 |
| Tada3 | no change with or without drug | 0.22 | -1.52 |
| Trim27 | no change with or without drug | -1.35 | -0.51 |
| Rabggtb | no change with or without drug | 0.34 | -0.84 |
| Msln | no change with or without drug | -0.11 | -0.34 |
| Mkrn2 | low cell count with doxorubicin only (active) | -2.25 | -0.34 |
| Garre1 | no change with or without drug | -1.01 | 0 |
| Ing1 | no change with or without drug | -1.57 | -0.84 |
| A030003K21Rik | no change with or without drug | 0.45 | 0.84 |
| Selenok | no change with or without drug | 0 | 0.17 |
| Uhrf1 | no change with or without drug | 0 | -0.84 |
| Grm3 | no change with or without drug | 0.67 | 1.01 |
| Nrm | no change with or without drug | 1.12 | 0.84 |
| Fam161a | low cell count with doxorubicin only (active) | -2.36 | -0.17 |
| Crtap | no change with or without drug | 0.45 | 1.18 |
| Igdcc4 | no change with or without drug | -1.35 | -0.17 |

Limited to “viability z-score with doxorubicin”, for 5 of the entries above:
Lin52: -0.34
Rab34: 0.9
Clip1: -1.35
Tada3: 0.22
Trim27: -1.35
